## Results of single-concentration screens

By UniProt entry, the sequences of proteins in these tests, tags left out. Residues count along the entry.
UniProt P9WFT3, whole entry: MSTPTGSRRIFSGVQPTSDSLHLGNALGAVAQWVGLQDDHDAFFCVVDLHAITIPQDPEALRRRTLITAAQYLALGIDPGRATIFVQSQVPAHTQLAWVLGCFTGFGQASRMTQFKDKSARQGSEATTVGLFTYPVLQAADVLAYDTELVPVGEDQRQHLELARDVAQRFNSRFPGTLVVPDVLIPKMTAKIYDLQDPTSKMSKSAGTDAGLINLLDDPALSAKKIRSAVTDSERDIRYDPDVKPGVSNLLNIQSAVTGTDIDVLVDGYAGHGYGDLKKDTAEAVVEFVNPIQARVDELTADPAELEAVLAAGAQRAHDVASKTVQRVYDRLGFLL
UniProt A4I591, 1-473: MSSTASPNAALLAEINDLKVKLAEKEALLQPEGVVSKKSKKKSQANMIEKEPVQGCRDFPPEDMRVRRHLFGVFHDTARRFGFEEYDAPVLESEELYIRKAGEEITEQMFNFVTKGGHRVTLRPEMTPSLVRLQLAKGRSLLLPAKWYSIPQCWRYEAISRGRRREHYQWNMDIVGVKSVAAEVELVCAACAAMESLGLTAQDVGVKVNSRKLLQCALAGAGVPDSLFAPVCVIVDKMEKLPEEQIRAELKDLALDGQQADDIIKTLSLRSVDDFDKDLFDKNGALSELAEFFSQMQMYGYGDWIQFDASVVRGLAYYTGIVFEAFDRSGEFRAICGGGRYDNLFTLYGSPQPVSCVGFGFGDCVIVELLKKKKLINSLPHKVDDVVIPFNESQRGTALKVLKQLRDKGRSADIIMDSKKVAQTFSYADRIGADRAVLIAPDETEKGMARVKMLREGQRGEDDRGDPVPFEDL

Source: ChEMBL document CHEMBL3988442, “University of Dundee, Small-Polar-MMV Screening Library” (2021).

Results are given as percent effect.
The controls that fix the scale are not given in the record; negative values are as filed.
This is an unselected part of the compounds tested.
A dash means the value is not listed here; it may have been measured.

MtTrpRS: 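Enzyme assay of tryptophanyl-tRNA synthetase; the read-out is not stated. Target: Tryptophan-tRNA ligase, Mycobacterium tuberculosis (UniProt P9WFT3). Concentration: 10 µM. Higher most likely means stronger inhibition; the record gives no direction and few retests gave an IC50. Size under these conditions: about 65,000 compounds, about 64 of them at 50% or above in at least one test.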
LiHisRS: 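Histidine-tRNA ligase, Leishmania infantum (UniProt A4I591). Enzyme assay of histidyl-tRNA synthetase; the read-out is not stated. Compounds at 30 µM. Direction is inferred from retests: higher values go with stronger inhibition. The assay is labelled LdHisRS but filed under L. infantum. About 69,000 compounds were tested under these conditions; 0.6% (about 410) showed 50% or more at least once.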

compound	MtTrpRS	LiHisRS
CN1CCCC(c2n[nH]c3ncccc23)C1 (centres undefined)	-2.258%	8.333%
Cc1c(F)cc(C(=O)O)cc1S(=O)(=O)Nc1ccc2c(c1)OCCO2	2.153%	8.511%
CCCc1cc(CN(C)C2CC(C)(C)NC(C)(C)C2)n[nH]1	-0.4515%	14.4%
CNC(=O)CN1CCC(CN(C)Cc2ccccc2N(C)C)CC1	1.322%	16.33%
CN1CCN(C(=O)C2(NC(N)=O)CCCCC2)Cc2ccccc21	-1.891%	11.76%
Cc1nsc(N2CCCN(c3ccc(C#N)cn3)CC2)n1	-6.806%	17.24%
CCCS(=O)(=O)NCC(C)c1ccc(F)c(F)c1 (centres undefined)	-3.374%	4.762%
CCOCC1CN(c2ccncn2)Cc2cnn(CC3CC3)c21 (centres undefined)	0%	16.36%
CCN(C(C)=O)C(c1ccc(Cl)cc1)c1ccccn1 (centres undefined)	-2.673%	7.317%
Cc1ncc(CN2CC[C@@](C)(O)[C@H](Oc3cccc(F)c3)C2)cn1	-	1.449%
CC(C)N(Cc1ccc(C#N)cc1)C(=O)Nc1ccccn1	-10.05%	8.772%
COCCN1CCN(CCCS(=O)(=O)N(C)C)CC1C (centres undefined)	-4.309%	3.636%
CNC(=O)[C@@]12CCCN(c3ncccn3)[C@@H]1CN(c1ncc(C)cn1)C2	4.064%	18.58%
CCN1CC2(CC1=O)CN(Cc1cnn(C)c1)CCN(C(C)=O)C2 (centres undefined)	-0.5629%	11.54%
O=S(=O)(NC1CCCCC12OCCO2)c1cc(Cl)cc(Cl)c1 (centres undefined)	0.4167%	8.602%
O=C(c1ccc(=O)[nH]n1)N1CCNCC1c1ccccc1 (centres undefined)	1.795%	-2.837%
O=C1NC(c2cnc(C3CCC3)s2)Nc2ccccc21 (centres undefined)	1.188%	14.63%
CCC(=O)N1CSCC1C(=O)N(C)CCc1ccccc1 (centres undefined)	13.31%	14.29%
O=C(NC[C@]12COC[C@H]1CN(Cc1cccs1)C2)c1ccsc1	-0.6975%	10.91%
CN(C)c1cccc(C(=O)Nc2cnn(Cc3ccccn3)c2)c1	4.844%	21.71%
CN1CCN(CCc2ncnn2-c2ccc3c(c2)OCO3)CC1	-1.111%	17.78%
CC(C)C1SCC(=O)Nc2c1cnn2-c1ccc(Cl)cc1 (centres undefined)	3.055%	-6.522%
Cc1nc(CN2C[C@@H]3CN(c4ncccn4)C[C@@H]3C2=O)cs1	-4.02%	9.402%
Cc1ccccc1-c1cc(NC(=O)Cn2ccccc2=O)n(C)n1	-0.6053%	7.018%
Cc1cc(NCCc2nnc(N)s2)nc(-c2ccccc2)n1	-7.831%	-4.196%
CN(CC(=O)N(C)C1CCCCC1)Cc1nc2ccccc2c(=O)[nH]1	-3.445%	23.08%
CCCOc1ccc2c(c1)OCC(C(=O)NC(C)Cn1ccnc1)=C2 (centres undefined)	-4.545%	16%
COCc1nc(C(=O)NS(=O)(=O)c2ccc(Cl)cc2F)cs1	1.604%	-0.9259%
CC(C)N(Cc1c[nH]nc1-c1ccc2c(c1)OCO2)Cc1nccn1C	0.3027%	-1.408%
CCNc1nnc(SC(C(=O)NCc2cccnc2)C(C)C)s1 (centres undefined)	4.717%	20.41%
CN(C)C(=O)N1CCC2(CCCN(Cc3cnn(C)c3)C2)C1 (centres undefined)	-1.308%	6.015%
COCCCNC(=O)c1ccccc1-n1cc(CN(C)C)cn1	0.8696%	5.263%
COc1ccc(N2CCC(N(C)C(=O)C(C)SC)CC2)cc1 (centres undefined)	-1.455%	17.17%
CCc1nnc2n1CCN(Cc1ncc(-c3ccc(Cl)cc3)o1)C2	-7.721%	12.5%
Cc1nc(CC(=O)N2c3ccccc3OCC2C)cs1 (centres undefined)	0.7158%	1.075%
CCn1c(CN2CCCN(C(=O)OC)CC2)nc2c(F)cccc21	-1.887%	28%
COC(=O)CN1CCCn2nc(CCC(=O)N3CCCC3)cc2C1	0.3228%	20%
Cc1c(C(=O)N2CCC(C(=O)c3nc4ccccc4s3)CC2)cnn1C	3.46%	4.196%
CCOCC(=O)NC(C)Cc1ccccc1Br (centres undefined)	-0.6606%	9.524%
O=C(Cc1csc(-c2nnc[nH]2)n1)N1CCCC1Cn1cccn1 (centres undefined)	-1.098%	9.459%
CO[C@@H]1CC[C@@H](NS(=O)(=O)c2cn(C)nc2C)[C@H]1O	-8.045%	6.711%
CCCc1nc(CN(CC)Cc2ccc(S(C)(=O)=O)cc2)no1	-1.493%	11.39%
O=C1CC(N(C(=O)c2ccc(F)c(C(F)(F)F)c2)C2CC2)C(=O)N1 (centres undefined)	-8.252%	1.695%
Cc1cccc(S(=O)(=O)N2C[C@H]3C[C@H](C(=O)NCC4CC4)[C@@H](C2)O3)c1	-2.422%	17.09%
CSCCC(C)(O)CNC(=O)c1ccsc1 (centres undefined)	-8.739%	10.43%
CC(C)n1cc(CN(C)C[C@@H]2CCCN3CCCC[C@H]23)cn1	1.38%	15.56%
Cc1sc2nc(C(F)(F)F)nc(N3CCCN(C)CC3)c2c1C	-2.727%	17.17%
CN1CCN(C(=O)c2cccc(CN3CCOCC3)c2)CC1	4.109%	4.494%
O=C(c1ccc2nccn2c1)N1CCC(CCn2cccn2)CC1	3.881%	8.333%
Cc1n[nH]c(C)c1CCNC(=O)C1CCCN(CC(N)=O)C1 (centres undefined)	-7.204%	16.24%
CN1C(=O)CC(c2cnn(C)c2)C12CCN(C(=O)c1ccco1)CC2 (centres undefined)	-1.757%	15.6%
COC1(CNC(=O)c2ccoc2)CCSC1 (centres undefined)	0.1961%	2.564%
Cc1nc(CN(C)Cc2cn[nH]c2-c2ccc(F)cc2)c[nH]1	18.86%	10.67%
CC(=O)N1C[C@@H](F)[C@@H](OCc2nc3ccc(C#N)cc3[nH]2)C1	-2.033%	22.22%
CC(=O)N(Cc1noc(C2CC2)n1)C1CCN(Cc2ccccc2)C1 (centres undefined)	-5.062%	6.25%
Cc1cc(Oc2ccc(NC(=O)C3CC3)cc2)cc(C2CCNCC2)n1	-3.59%	-1.399%
Cc1cc(C)n(C2CCCN(C(=O)c3cccc4[nH]ncc34)C2)n1 (centres undefined)	-7.317%	15.38%
CN(C)C(=O)COCC1CN(Cc2cccs2)Cc2ncn(C)c21 (centres undefined)	18.06%	5.556%
COCCn1cc(CC(=O)Nc2nc3c(s2)CCC3)c2ccccc21	3.537%	19.57%
Cc1ccn(Cc2nc(C(C)OCC(C)C)no2)c(=O)c1 (centres undefined)	1.188%	14.47%
Cc1nc(CN2CCCC(c3cc(C(N)=O)[nH]n3)C2)oc1C (centres undefined)	-4.309%	7.143%
Cc1nc(C2CCCN2C(=O)Cc2ccc(F)cc2)nc(O)c1C (centres undefined)	-4.696%	-3.158%
Cn1cncc1C(=O)N1CCCC(c2ccn[nH]2)C1 (centres undefined)	0.6121%	20.48%
Cc1cccn2c(=O)cc(CN3CCCCC3Cn3cncn3)nc12 (centres undefined)	1.509%	0%
Cc1cccc(-n2cc(CN3CCN(C)[C@@H]4CS(=O)(=O)C[C@@H]43)cn2)c1	3.183%	0%
C[C@@H]1CN(S(C)(=O)=O)C[C@]12CCN(Cc1cccnc1)C2=O	5.804%	6.422%
O=C(CCc1ccc(O)cc1)N1CCC(Cc2ccc(CO)cc2)C1 (centres undefined)	-7.583%	22.12%
CN(Cc1cc(-c2ccncc2)no1)C(=O)[C@@H]1CSCN1C	5.366%	10.83%
Cc1nc(C2CCCN(C(=O)c3cc(Cl)c4c(c3)OCO4)C2)no1 (centres undefined)	-4.984%	9.565%
CCOc1ccc(C#N)cc1NCC(=O)Nc1cc(F)ccc1F	3.698%	-32.58%
CC(C(=O)N1CCc2ccccc2C1)N(C)Cc1cscn1 (centres undefined)	-0.7009%	3.896%
CCNC(=O)NC(=O)CN1CCOC(c2ccc(Br)cc2)C1 (centres undefined)	-3.216%	15.52%
Cn1cccc1C(=O)N1CCc2ncnc(C3CC3)c2CC1	-5.463%	12.41%
Cc1nc(CN2CCCC(Nc3ncnc4ccccc34)C2)no1 (centres undefined)	-0.6053%	-1.754%
COCCNC(=O)C1CN(Cc2nccs2)Cc2ccnn2C1 (centres undefined)	-7.654%	29.41%
O=C(Cn1nc2ccccc2n1)N1CCCC(O)(CO)C1 (centres undefined)	3.372%	15.69%

9 of the entries, repeated:

* Cc1c(F)cc(C(=O)O)cc1S(=O)(=O)Nc1ccc2c(c1)OCCO2 : MtTrpRS: 2.153%; LiHisRS: 8.511%
* Cc1cc(NCCc2nnc(N)s2)nc(-c2ccccc2)n1 : MtTrpRS: -7.831%; LiHisRS: -4.196%
* Cc1ccn(Cc2nc(C(C)OCC(C)C)no2)c(=O)c1 (centres undefined) : MtTrpRS: 1.188%; LiHisRS: 14.47%
* CN1C(=O)CC(c2cnn(C)c2)C12CCN(C(=O)c1ccco1)CC2 (centres undefined) : MtTrpRS: -1.757%; LiHisRS: 15.6%
* CCCS(=O)(=O)NCC(C)c1ccc(F)c(F)c1 (centres undefined) : MtTrpRS: -3.374%; LiHisRS: 4.762%
* CN(Cc1cc(-c2ccncc2)no1)C(=O)[C@@H]1CSCN1C : MtTrpRS: 5.366%; LiHisRS: 10.83%
* CC(C(=O)N1CCc2ccccc2C1)N(C)Cc1cscn1 (centres undefined) : MtTrpRS: -0.7009%; LiHisRS: 3.896%
* Cn1cccc1C(=O)N1CCc2ncnc(C3CC3)c2CC1 : MtTrpRS: -5.463%; LiHisRS: 12.41%
* CCN1CC2(CC1=O)CN(Cc1cnn(C)c1)CCN(C(C)=O)C2 (centres undefined) : MtTrpRS: -0.5629%; LiHisRS: 11.54%